# From paper PMC8038991, “R-catcher, a potent molecular tool to unveil the arginylome” (Cellular and Molecular Life Sciences: CMLS, 2021)
# Chains of the proteins cited; added tags and fusions are not shown. Lines headed by an entry give the natural chain unless they say otherwise; changes in a name come on top. A line that says so, or that is headed by a name, gives the form on record, which may keep a tag or linker.
# R-PDI detected in the preliminary N-terminal enrichment experiments (P07237, form named): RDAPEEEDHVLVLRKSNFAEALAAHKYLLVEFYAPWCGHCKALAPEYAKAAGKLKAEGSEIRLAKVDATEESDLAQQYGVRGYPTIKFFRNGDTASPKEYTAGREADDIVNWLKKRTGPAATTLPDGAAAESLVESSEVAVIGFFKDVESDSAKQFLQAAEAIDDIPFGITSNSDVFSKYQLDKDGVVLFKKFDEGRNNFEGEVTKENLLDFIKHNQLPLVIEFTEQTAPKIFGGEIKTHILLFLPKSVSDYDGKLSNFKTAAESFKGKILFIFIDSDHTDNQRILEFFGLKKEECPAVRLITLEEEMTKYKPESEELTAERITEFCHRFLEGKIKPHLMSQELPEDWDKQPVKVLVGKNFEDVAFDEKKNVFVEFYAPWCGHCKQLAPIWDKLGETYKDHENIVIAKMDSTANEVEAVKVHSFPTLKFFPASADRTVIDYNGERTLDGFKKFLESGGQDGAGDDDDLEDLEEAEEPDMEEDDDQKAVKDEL
# Molecular target: R-catcher (Twin StrepII-His6-ZZ_(122-175)^N132D) (human) (UniProt Q13501)
# Assay: affinity purification with mass spectrometry; preliminary result: enrichment of protein N-termini after R-catcher pull-down; no details; only the target purified
substance,measurement,value
R-PDI detected in the preliminary N-terminal enrichment experiments (from UniProt P07237 18-508),binding,binds

# No constants are given. Whether binding was seen depends on the method and setting. In cells and extracts the contact can be indirect. A yes stands for co-enrichment or nearness to the bait. Other partners may have been found.
